Measured values published in patent US20240209028A1, “CNP COMPOUNDS” (priority 2022, published 2024).
At least one read-out could not be matched to a standard name with certainty. Starred links: 1 amine or outer side, 2 acyl side, 3 side chain; linkers in the order of their positions; H or OH if unused. Positions of bridges follow the written chain, without caps; N, C: chain ends. Residues, ends and D or L forms follow the SMILES beside them. *: point of attachment. C18 diacid = O=C(O)CCCCCCCCCCCCCCCCC(=O)*; γGlu = O=C(O)[C@H](CCC(=O)[*:2])N[*:1]; AEEA = NCCOCCOCC(=O)O

Legend:
[1] = Thioflavin T (ThT) assay: lagtime and peptide recovery; assay type: physicochemical; settings: for Peptide Recovery (%) at pH 4.0: after 45 h ThT incubation vs before, RP-UPLC
Source text: The ThT assay was used to evaluate physical stability of the CNP compounds and their suitability for liquid formulation. Low physical stability of peptides may lead to amyloid fibril formation, which is observed as well-ordered, thread-like macromolecular structures in the sample eventually resulting in gel formation. This has traditionally been tested by visual inspection of the sample. However, that kind of measurement is very subjective and depending on the observer. Therefore, the application of a small molecule indicator probe is much more advantageous. Thioflavin T (ThT) is such a probe and has a distinct fluorescence signature when binding to fibrils [Naiki et al. (1989) Anal. Biochem. 177, 244-249; LeVine (1999) Methods. Enzymol. […], 274-284].
Procedure: Thioflavin T was added to the supernatant samples from Example 5 (pH 4.0 and 6.5) using an aqueous ThT stock solution to a final concentration of about 1 μM in the samples. Sample aliquots of 150 μL were placed in a 96 well microtiter plate (Packard OptiPlate™-96, white polystyrene). Usually, two to three replicas of each sample were applied to the plate. The plate was sealed and placed in a fluorescence plate reader (Fluoroskan Ascent FL) and incubated at 37° C. with orbital shaking (960 rpm; 1 mm amplitude). Fluorescence measurements were performed every 20 minutes using excitation through a 444 nm filter and measurement of emission through a 485 nm filter. Between each measurement, the plate was shaken and heated as described above and the assay was terminated after 45 hours. Fluorescence measurements for each microtiter plate well were plotted against time and the lag-time (time until an increase in ThT fluorescence was observed) was estimated.
To assess loss of dissolved peptide following 45h incubation, peptide recovery was measured as the ratio between total peak area after incubation vs. before incubation using the RP-UPLC method described below. […]

[2] = Accelerated chemical stability (RP-UPLC recovery and LCMS degradation pattern, 37° C.); assay type: physicochemical; settings: LCMS, 5 mM sodium acetate, 250 mM glycerol, pH 4
Description: In order to determine the chemical stability of CNP compounds in formulation, samples of CNP compounds in buffer were exposed to accelerated chemical degradation by heating. The stability of a given peptide was assessed by measuring recovery of intact peptide by quantification by RP-UPLC. To assess the chemical degradation pattern samples were also analysed by LC-MS.
Sample preparation: Samples for the 2 week study were prepared according to the principles described in Example 5.
Samples for the 6 week study were prepared by dissolving lyophilized peptide in buffer (8 mM phosphate, 250 mM glycerol, pH 7.4) to a nominal peptide concentration of 5000 nmol/ml followed by pH adjustment with 0.1 N HCl to pH 6.5.
Incubation: For the 2 week study a time-zero (TZ) sample was pulled and stored at −18° C. and the remaining volume was incubated at 37° C. […] Frozen samples were thawed, diluted to about 200 nmol/mL and the extent of chemical degradation was determined using LCMS as described.
For the 6 week study a time-zero (TZ) sample was pulled and stored at −18° C. and the remaining volume was incubated at 37° C. […] Frozen samples were thawed, diluted to about 200 nmol/mL and the extent of chemical degradation was determined using RP-UPLC and LCMS as described. […]
Analysis of chemical degradation patterns by LCMS: Samples were analysed on a […] […]

## CC[C@H](C)[C@@H]1NC(=O)[C@H](CCCNC(=N)N)NC(=O)[C@H](CCC(=O)O)NC(=O)[C@H](CC(C)C)NC(=O)[C@@H]2CCCN2C(=O)[C@H](CC(C)C)NC(=O)CNC(=O)[C@H](Cc2ccccc2)NC(=O)[C@@H](NC(=O)CNC(=O)[C@H](CO)NC(=O)[C@H](CO)NC(=O)[C@H](CC(C)C)NC(=O)CNC(=O)[C@H](CCCCN)NC(=O)[C@H](CCCCN)NC(=O)[C@H](CCC(N)=O)NC(=O)[C@H](C)NC(=O)CNC(=O)[C@H](CCCCN)NC(=O)[C@H](Cc2ccc(O)cc2)NC(=O)[C@H](CCCCN)NC(=O)[C@H](CCCNC(=N)N)NC(=O)[C@H](C)NC(=O)[C@H](CCC(N)=O)NC(=O)[C@@H]2CCCN2C(=O)[C@H](Cc2c[nH]cn2)NC(=O)[C@H](CCC(=O)O)NC(=O)[C@H](CCC(N)=O)NC(=O)CC[C@H](NC(=O)CC[C@H](NC(=O)CC[C@H](NC(=O)CC[C@H](NC(=O)CCCCCCCCCCCCCCCCC(=O)O)C(=O)O)C(=O)O)C(=O)O)C(=O)O)CSSC[C@@H](C(=O)O)NC(=O)CNC(=O)[C@H](CC(C)C)NC(=O)CNC(=O)[C@H](CO)NC(=O)[C@H](CC(C)C)NC(=O)[C@H](CO)NC(=O)CNC1=O [compound 9483] ({C18 diacid-γGlu-γGlu-γGlu-γGlu}-QEHPQARKYKGAQKKGLSSGCFGLPLERIGSLSGLGC-OH; disulfide 21-37)
[1]
  Peptide Recovery (%) at pH 4.0: 74%

## CC[C@H](C)[C@@H]1NC(=O)[C@H](CCCNC(=N)N)NC(=O)[C@H](CCC(=O)O)NC(=O)[C@H](CC(C)C)NC(=O)[C@@H]2CCCN2C(=O)[C@H](CC(C)C)NC(=O)CNC(=O)[C@H](Cc2ccccc2)NC(=O)[C@@H](NC(=O)CNC(=O)[C@H](CO)NC(=O)[C@H](CO)NC(=O)[C@H](CC(C)C)NC(=O)CNC(=O)[C@H](CCCCN)NC(=O)[C@H](CCCCN)NC(=O)[C@H](CCC(N)=O)NC(=O)[C@H](C)NC(=O)CNC(=O)[C@H](CCCCN)NC(=O)[C@H](Cc2ccc(O)cc2)NC(=O)[C@H](CCCCN)NC(=O)[C@H](CCCNC(=N)N)NC(=O)[C@H](C)NC(=O)[C@H](CCC(N)=O)NC(=O)[C@@H]2CCCN2C(=O)[C@H](Cc2c[nH]cn2)NC(=O)[C@H](CCC(=O)O)NC(=O)[C@H](CCC(N)=O)NC(=O)CC[C@H](NC(=O)CC[C@H](NC(=O)CC[C@H](NC(=O)CC[C@H](NC(=O)CCCCCCCCCCCCCCCCC(=O)O)C(=O)O)C(=O)O)C(=O)O)C(=O)O)CSSC[C@@H](C(=O)O)NC(=O)CNC(=O)[C@H](CC(C)C)NC(=O)CNC(=O)[C@H](CO)NC(=O)[C@H](CC(C)C)NC(=O)[C@H](CO)NC(=O)CNC1=O [Compound 9483] ({C18 diacid-γGlu-γGlu-γGlu-γGlu}-QEHPQARKYKGAQKKGLSSGCFGLPLERIGSLSGLGC-OH; disulfide 21-37)
[2]; 2 weeks at 37° C.
  Recovery 2 W: 96.2
[2]; time zero
  Recovery TZ: 100

## CC[C@H](C)[C@@H]1NC(=O)[C@H](CCCNC(=N)N)NC(=O)[C@H](CCC(=O)O)NC(=O)[C@H](CC(C)C)NC(=O)[C@@H]2CCCN2C(=O)[C@H](CC(C)C)NC(=O)CNC(=O)[C@H](Cc2ccccc2)NC(=O)[C@@H](NC(=O)CNC(=O)[C@H](CCC(N)=O)NC(=O)[C@H](CO)NC(=O)[C@H](CC(C)C)NC(=O)CNC(=O)[C@H](CCCCN)NC(=O)[C@H](CCCCN)NC(=O)[C@H](CCC(N)=O)NC(=O)[C@H](C)NC(=O)CNC(=O)[C@H](CCCCN)NC(=O)[C@H](Cc2ccc(O)cc2)NC(=O)[C@H](CCCCN)NC(=O)[C@H](CCCNC(=N)N)NC(=O)[C@H](C)NC(=O)COCCOCCNC(=O)COCCOCCNC(=O)COCCOCCNC(=O)COCCOCCNC(=O)CC[C@H](NC(=O)CC[C@H](NC(=O)CC[C@H](NC(=O)CC[C@H](NC(=O)CC[C@H](NC(=O)CCCCCCCCCCCCCCCCC(=O)O)C(=O)O)C(=O)O)C(=O)O)C(=O)O)C(=O)O)CSSC[C@@H](C(=O)O)NC(=O)CNC(=O)[C@H](CC(C)C)NC(=O)CNC(=O)[C@H](CO)NC(=O)[C@H](CC(C)C)NC(=O)[C@H](CO)NC(=O)CNC1=O [compound 1477] ({C18 diacid-γGlu-γGlu-γGlu-γGlu-γGlu-AEEA-AEEA-AEEA-AEEA}-ARKYKGAQKKGLSQGCFGLPLERIGSLSGLGC-OH; disulfide 16-32)
[1]; ThT assay, pH 6.5, after 45h incubation
  Peptide Recovery (%) at pH 6.5: 16%

## CC[C@H](C)[C@@H]1NC(=O)[C@H](CCCNC(=N)N)NC(=O)[C@H](CCC(=O)O)NC(=O)[C@H](CC(C)C)NC(=O)[C@@H]2CCCN2C(=O)[C@H](CC(C)C)NC(=O)CNC(=O)[C@H](Cc2ccccc2)NC(=O)[C@@H](NC(=O)CNC(=O)[C@H](CCC(N)=O)NC(=O)[C@H](CO)NC(=O)CNC(=O)CNC(=O)[C@H](CCCCN)NC(=O)[C@H](CCCCN)NC(=O)[C@H](CCC(N)=O)NC(=O)[C@H](C)NC(=O)CNC(=O)[C@H](CCCCN)NC(=O)[C@H](Cc2ccc(O)cc2)NC(=O)COCCOCCNC(=O)COCCOCCNC(=O)COCCOCCNC(=O)COCCOCCNC(=O)CC[C@H](NC(=O)CC[C@H](NC(=O)CCCCCCCCCCCCCCCCC(=O)O)C(=O)O)C(=O)O)CSSC[C@@H](C(=O)O)NC(=O)CNC(=O)[C@H](CC(C)C)NC(=O)CNC(=O)[C@H](CO)NC(=O)[C@H](CC(C)C)NC(=O)[C@H](CO)NC(=O)CNC1=O [compound 1489] ({C18 diacid-γGlu-γGlu-AEEA-AEEA-AEEA-AEEA}-YKGAQKKGGSQGCFGLPLERIGSLSGLGC-OH; disulfide 13-29)
[1]
  Peptide Recovery (%) at pH 4.0: 99%
